Results on four molecules are retold here after PMC8151980.

By UniProt entry, the sequences of proteins in these tests, tags left out. Where a name states a change or a piece, a line headed by the entry shows the natural chain unless it says otherwise.
UniProt Q94EH2: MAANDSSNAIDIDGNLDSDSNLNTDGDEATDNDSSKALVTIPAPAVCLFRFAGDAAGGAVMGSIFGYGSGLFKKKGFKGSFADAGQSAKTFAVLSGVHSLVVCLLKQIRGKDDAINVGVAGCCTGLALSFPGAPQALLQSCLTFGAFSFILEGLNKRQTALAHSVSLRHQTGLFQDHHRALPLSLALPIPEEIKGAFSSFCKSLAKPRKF
UniProt Q6NKU9: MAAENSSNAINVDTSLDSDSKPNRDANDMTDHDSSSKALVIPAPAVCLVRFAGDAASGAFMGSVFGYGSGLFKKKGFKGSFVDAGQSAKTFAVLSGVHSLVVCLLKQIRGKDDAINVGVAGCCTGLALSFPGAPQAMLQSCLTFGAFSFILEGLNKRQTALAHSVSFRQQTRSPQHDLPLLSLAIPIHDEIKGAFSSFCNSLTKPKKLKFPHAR

Results are given in words; binding and its absence hold for the method and conditions named. In cells and extracts the contact can be indirect. Binding calls can cover weak binding; strength is not graded here. For some assays here: Where a sequence is shown, tags or fusion partners need not be part of it.

Test [1] concerns the target T1, hexa-histidine-tagged, 35S-methionine-labeled chloroplast envelope quinone oxidoreductase homologue (ceQORH-(His)6) (UniProt Q9SV68).
T1 sequence (chain, 35S-methionine-labeled): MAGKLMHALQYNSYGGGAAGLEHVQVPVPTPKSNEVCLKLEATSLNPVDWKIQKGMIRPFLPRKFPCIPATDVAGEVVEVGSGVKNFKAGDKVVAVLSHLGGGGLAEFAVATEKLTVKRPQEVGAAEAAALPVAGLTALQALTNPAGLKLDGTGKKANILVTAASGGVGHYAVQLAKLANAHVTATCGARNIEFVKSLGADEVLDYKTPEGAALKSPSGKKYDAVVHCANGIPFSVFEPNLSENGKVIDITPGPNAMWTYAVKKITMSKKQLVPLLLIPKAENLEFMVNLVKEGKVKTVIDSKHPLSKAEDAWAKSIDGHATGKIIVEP
Kind of test: pull-down; purified 35S-ceQORH-(His)6 incubated 15 min with isolated Arabidopsis chloroplasts at 0.1 mM Mg-GTP and 0.1 mM Mg-ATP; envelope membranes detergent-solubilized (2% Triton X100, 300 mM NaCl, 20 mM imidazole); import intermediate-associated proteins purified by Ni-NTA chromatography, separated by 1D or 2D SDS-PAGE, Coomassie-stained and identified by protein sequencing; only the target purified.

Test [2] has as its target T2, HP65b (At5g55220) (Arabidopsis thaliana (endogenous in isolated chloroplasts)) (UniProt Q8S9L5).
T2 sequence: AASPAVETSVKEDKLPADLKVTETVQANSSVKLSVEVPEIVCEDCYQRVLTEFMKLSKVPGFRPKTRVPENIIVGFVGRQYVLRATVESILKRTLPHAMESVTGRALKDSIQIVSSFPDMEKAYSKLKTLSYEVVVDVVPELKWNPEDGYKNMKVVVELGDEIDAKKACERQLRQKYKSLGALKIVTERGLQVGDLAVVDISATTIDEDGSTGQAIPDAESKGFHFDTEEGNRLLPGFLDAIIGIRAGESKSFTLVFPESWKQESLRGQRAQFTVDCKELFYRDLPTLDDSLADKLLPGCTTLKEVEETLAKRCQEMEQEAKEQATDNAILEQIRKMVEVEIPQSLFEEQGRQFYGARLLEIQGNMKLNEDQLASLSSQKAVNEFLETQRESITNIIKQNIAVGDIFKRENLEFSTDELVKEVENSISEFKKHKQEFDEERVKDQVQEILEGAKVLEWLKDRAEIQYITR
The experiment in a line: co-IP; maltoside-solubilized chloroplast envelope protein extracts (HP22-(His)6-containing complexes); precipitated with antibody against HP65b; Western blot; only the binder purified. Background: A western blot detects proteins with antibodies after separation by electrophoresis.

Test [3] has as its target hexa-histidine-tagged HP20 (HP20-(His)6), At4g26670 (Arabidopsis thaliana) (UniProt Q94EH2). Kind of test: co-IP; maltoside-solubilized chloroplast envelope protein extracts (HP20-(His)6-containing complexes); precipitated with antibodies against HP20; Western blot; only the target purified.
The target in test [4] is hexa-histidine-tagged HP22 (HP22-(His)6), At5g55510 (Arabidopsis thaliana) (UniProt Q6NKU9). The experiment in a line: pull-down; purified HP22-(His)6 imported into chloroplasts from 5 weeks-old plants (0.1 mM Mg-GTP, 2.5 mM Mg-ATP, 15 min); envelope protein complexes purified from ruptured chloroplasts, separated by SDS-PAGE, bands identified by manual or automated sequencing; only the target purified.

cpHSC70: the binding result in test [1] was “binds”. As to “hexa-histidine-tagged HP22 (HP22-(His)6), At5g55510 (from UniProt Q6NKU9)”, the binding result in test [2] is “binds”.

B1: HP30 (At3g49560) (protein, UniProt Q9SCK3 1-261)
chain: MVVGGGGEGDQKRSSGEMMAMASLFNDQQNPIQQFQVKFKEVETNFKTWLSKQSIPVEAAVVSTMSGVQGAFIGGLMGTLSPEMPQAGVDPQAIASMKQAQALVGGPWVQARNFAAITGVNAGIASVMKRIRGKEDIESAVVAALGSGFAYSLVSQGLQGQPMNAITTAAGFAVFQGVFFKLGERFSKPSTEDPFFTRGRTMLVKLGLEKYEKNFKKGLLTDPTLPLLTDSALKDANIPPGPRLMILDHIQRDPEIKGKRK
As to B1, in test [3], the binding entry is given as “binds”.

B2: HP65b (At5g55220) (protein, UniProt Q8S9L5 78-547)
chain: AASPAVETSVKEDKLPADLKVTETVQANSSVKLSVEVPEIVCEDCYQRVLTEFMKLSKVPGFRPKTRVPENIIVGFVGRQYVLRATVESILKRTLPHAMESVTGRALKDSIQIVSSFPDMEKAYSKLKTLSYEVVVDVVPELKWNPEDGYKNMKVVVELGDEIDAKKACERQLRQKYKSLGALKIVTERGLQVGDLAVVDISATTIDEDGSTGQAIPDAESKGFHFDTEEGNRLLPGFLDAIIGIRAGESKSFTLVFPESWKQESLRGQRAQFTVDCKELFYRDLPTLDDSLADKLLPGCTTLKEVEETLAKRCQEMEQEAKEQATDNAILEQIRKMVEVEIPQSLFEEQGRQFYGARLLEIQGNMKLNEDQLASLSSQKAVNEFLETQRESITNIIKQNIAVGDIFKRENLEFSTDELVKEVENSISEFKKHKQEFDEERVKDQVQEILEGAKVLEWLKDRAEIQYITR
For B2, the binding entry in test [3] is “no binding”; in test [4], “binds”.
